Record: PubChem BioAssay AID1259275 (Sanger Institute, 2017)
Purpose: 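Kinase and colorectal cancer genes needed for cancer cell survival, with or without drugs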 (primary screen). System: COLO320HSR human colorectal cancer cells. Reagents: siRNA pool against human genes. Challenge: anchor drug added one day after transfection: BYL719 at 1 µM, cetuximab at 5 µg/ml or trametinib at 10 nM; DMSO as vehicle arm. Read-out: 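Viability averaged over replicates as a fraction of the non-targeting pool, a robust z-score for knock-down alone, and synergy scores with BYL719 (1 µM), cetuximab (5 µg/ml) or trametinib (10 nM)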. Scale: robust z-score, siRNA alone: higher = more viable cells; strongly negative means essential; viability, knock-down alone (DMSO): higher = more viable cells; synergy score with BYL719 and synergy score with cetuximab and synergy score with trametinib: higher = stronger combined killing with drug. Hit rule: 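a gene is called essential when its robust z-score without drug falls below -3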. Meaning of the calls: active = essential (siRNA alone); inactive = no change (siRNA alone).
The deposit covers 794 reagents; shown is a random part of them. 13 of them (1.6%) were called active. 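Calls mark knock-downs lethal by themselves, not drug synergy; drugs went in a day after transfection, with DMSO as vehicle.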 A number with no mark means an inactive call. Viability is capped at 1. The record does not give: the amount of reagent, the time to read-out.

no.	target gene	robust z-score, siRNA alone	viability, knock-down alone (DMSO) (fraction of control)	synergy score with BYL719	synergy score with cetuximab	synergy score with trametinib
1	NTN4 (GeneID 59277)	0.726	1	-0.126	-0.0893	-0.0259
2	PRAG1 (GeneID 157285)	-1.18	0.828	-0.0261	-0.225	-0.0625
3	HIPK1 (GeneID 204851)	-0.521	0.887	-0.189	-0.192	-0.0696
4	CDK11A (GeneID 728642)	-3.24 (active)	0.642	-0.322	-0.00446	0.0145
5	CHD4 (GeneID 1108)	-2.22	0.734	-0.043	-0.0136	-0.0709
6	AURKA (GeneID 6790)	-2.6	0.699	-0.0609	-0.0661	0.00415
7	PFKM (GeneID 5213)	0.329	0.964	-0.176	-0.122	-0.00793
8	CDKN2C (GeneID 1031)	-0.7	0.871	-0.078	0.00992	-0.0617
9	BLK (GeneID 640)	0.726	1	-0.236	-0.0893	-0.0259
10	MYLK2 (GeneID 85366)	0.46	0.976	-0.134	-0.111	-0.0178
11	PRKG2 (GeneID 5593)	-1.24	0.822	-0.0868	-0.0581	-0.0539
12	PIK3C2A (GeneID 5286)	0.0355	0.938	-0.0918	-0.0811	0.0205
13	FXR1 (GeneID 8087)	0.726	1	-0.296	-0.0893	-0.0259
14	PCK2 (GeneID 5106)	0.584	0.987	-0.0539	-0.101	-0.0385
15	CSNK2A2 (GeneID 1459)	-0.0684	0.928	-0.111	-0.155	0.0364
16	TEC (GeneID 7006)	-0.0346	0.931	-0.142	-0.0667	-0.0473
17	STK31 (GeneID 56164)	-0.838	0.859	-0.143	-0.218	-0.158
18	CKMT2 (GeneID 1160)	0.726	1	-0.0698	-0.0235	0.00919
19	MAP2K1 (GeneID 5604)	-0.448	0.894	-0.0619	-0.144	-0.129
20	GUK1 (GeneID 2987)	-2.47	0.712	-0.264	-0.127	-0.0547
21	CTCF (GeneID 10664)	0.112	0.945	-0.129	-0.14	0.0235
22	ACO1 (GeneID 48)	-2.79	0.682	0.0637	-0.177	-0.00276
23	PIKFYVE (GeneID 200576)	0.665	0.994	-0.114	-0.0309	-0.0313
24	CHEK2 (GeneID 11200)	0.028	0.937	-0.186	-0.0917	-0.0873
25	RPS6KA4 (GeneID 8986)	-1.34	0.813	-0.0623	-0.244	-0.0617
26	DGKK (GeneID 139189)	-1.16	0.829	-0.0163	-0.11	-0.13
27	CSK (GeneID 1445)	0.187	0.951	-0.0107	-0.134	-0.0734
28	CHD9 (GeneID 80205)	0.422	0.973	-0.169	-0.0684	-0.0094
29	TNNI3K (GeneID 51086)	0.726	1	-0.237	-0.0872	-0.0259
30	CREBBP (GeneID 1387)	-1.66	0.785	-0.0329	-0.143	-0.152
31	EXOSC10 (GeneID 5394)	-0.11	0.925	-0.0692	-0.0818	-0.0367
32	CDK12 (GeneID 51755)	-0.3	0.907	0.057	-0.0233	0.0396
33	TCF12 (GeneID 6938)	0.726	1	-0.0305	-0.0893	-0.0259
34	TRIB2 (GeneID 28951)	0.351	0.966	-0.0813	0.0134	0.0538
35	JAK2 (GeneID 3717)	0.279	0.96	-0.183	-0.103	-0.0653
36	MAST2 (GeneID 23139)	-0.0736	0.928	-0.209	-0.0149	-0.0223
37	TJP2 (GeneID 9414)	0.537	0.983	-0.0589	-0.105	-0.0426
38	FLT1 (GeneID 2321)	0.726	1	-0.178	-0.0893	-0.0259
39	NME3 (GeneID 4832)	0.726	1	0.0727	-0.0621	0.00442
40	STK38 (GeneID 11329)	-1.79	0.773	-0.0396	-0.129	-0.138
41	PRKCG (GeneID 5582)	0.726	1	-0.0142	-0.0328	-0.0259
42	CDK14 (GeneID 5218)	0.726	1	-0.159	-0.0893	-0.0259
43	PMVK (GeneID 10654)	-0.646	0.876	-0.135	-0.0993	-0.147
44	FGFRL1 (GeneID 53834)	0.315	0.963	-0.0636	-0.0634	0.0107
45	ROS1 (GeneID 6098)	0.00228	0.935	-0.18	-0.115	-0.0896
46	TSSK3 (GeneID 81629)	0.0743	0.941	-0.127	-0.138	0.0197
47	CSNK2B (GeneID 1460)	0.726	1	0.00529	-0.0778	-0.0259
48	NTRK1 (GeneID 4914)	0.726	1	-0.0851	-0.0893	-0.0259
49	TLK1 (GeneID 9874)	0.553	0.984	-0.0798	-0.0239	-0.0113
50	CDC42BPG (GeneID 55561)	0.726	1	-0.228	-0.0656	-0.0103
